In patent US20030064960A1, “Medicine for inducing osteogenesis” (priority 1999, published 2003):
Some entries share one result that the patent states for a list of compounds.

Tested on: mouse
Assay: Acute toxicity (LD50) by intraperitoneal administration of mouse
Type: in vivo

## phosphatidyl-ethanolamine conjugated hyaluronic acid
  acute toxicity (LD50): above 2000 mg/kg

## phosphatidyl-ethanolamine conjugated chondroitin sulfate
  acute toxicity (LD50): above 2000 mg/kg
